According to patent US20230104113:

Target: Transferrin receptor (TfR) (human) (UniProt P02786)
Assay: activity in cells
Settings: carrier-free internalization into HeLa cells by fluorescence microscopy; protein on the cell surface; protein details: endogenous on HeLa cells; dose not given here

| Sequence | functional effect of the aptamer |
| --- | --- |
| GGGGGAUCAAUCCAAGGGACCCGGAAACGCUCCCUUACACCCC [circular RNA with C2.min aptamer] | active |
| GGGUGAAUGGUUCUACGAUAAACGUUAAUGACCAGCUUAUGGCUGGCAGUUCCUAUAGCACCC [circular RNA with 36a aptamer] | active |
